This note sets out measurements from PMC5467242.

Sequences of proteins named here, by UniProt entry; tags and fusion partners are left off.
UniProt A2BH40: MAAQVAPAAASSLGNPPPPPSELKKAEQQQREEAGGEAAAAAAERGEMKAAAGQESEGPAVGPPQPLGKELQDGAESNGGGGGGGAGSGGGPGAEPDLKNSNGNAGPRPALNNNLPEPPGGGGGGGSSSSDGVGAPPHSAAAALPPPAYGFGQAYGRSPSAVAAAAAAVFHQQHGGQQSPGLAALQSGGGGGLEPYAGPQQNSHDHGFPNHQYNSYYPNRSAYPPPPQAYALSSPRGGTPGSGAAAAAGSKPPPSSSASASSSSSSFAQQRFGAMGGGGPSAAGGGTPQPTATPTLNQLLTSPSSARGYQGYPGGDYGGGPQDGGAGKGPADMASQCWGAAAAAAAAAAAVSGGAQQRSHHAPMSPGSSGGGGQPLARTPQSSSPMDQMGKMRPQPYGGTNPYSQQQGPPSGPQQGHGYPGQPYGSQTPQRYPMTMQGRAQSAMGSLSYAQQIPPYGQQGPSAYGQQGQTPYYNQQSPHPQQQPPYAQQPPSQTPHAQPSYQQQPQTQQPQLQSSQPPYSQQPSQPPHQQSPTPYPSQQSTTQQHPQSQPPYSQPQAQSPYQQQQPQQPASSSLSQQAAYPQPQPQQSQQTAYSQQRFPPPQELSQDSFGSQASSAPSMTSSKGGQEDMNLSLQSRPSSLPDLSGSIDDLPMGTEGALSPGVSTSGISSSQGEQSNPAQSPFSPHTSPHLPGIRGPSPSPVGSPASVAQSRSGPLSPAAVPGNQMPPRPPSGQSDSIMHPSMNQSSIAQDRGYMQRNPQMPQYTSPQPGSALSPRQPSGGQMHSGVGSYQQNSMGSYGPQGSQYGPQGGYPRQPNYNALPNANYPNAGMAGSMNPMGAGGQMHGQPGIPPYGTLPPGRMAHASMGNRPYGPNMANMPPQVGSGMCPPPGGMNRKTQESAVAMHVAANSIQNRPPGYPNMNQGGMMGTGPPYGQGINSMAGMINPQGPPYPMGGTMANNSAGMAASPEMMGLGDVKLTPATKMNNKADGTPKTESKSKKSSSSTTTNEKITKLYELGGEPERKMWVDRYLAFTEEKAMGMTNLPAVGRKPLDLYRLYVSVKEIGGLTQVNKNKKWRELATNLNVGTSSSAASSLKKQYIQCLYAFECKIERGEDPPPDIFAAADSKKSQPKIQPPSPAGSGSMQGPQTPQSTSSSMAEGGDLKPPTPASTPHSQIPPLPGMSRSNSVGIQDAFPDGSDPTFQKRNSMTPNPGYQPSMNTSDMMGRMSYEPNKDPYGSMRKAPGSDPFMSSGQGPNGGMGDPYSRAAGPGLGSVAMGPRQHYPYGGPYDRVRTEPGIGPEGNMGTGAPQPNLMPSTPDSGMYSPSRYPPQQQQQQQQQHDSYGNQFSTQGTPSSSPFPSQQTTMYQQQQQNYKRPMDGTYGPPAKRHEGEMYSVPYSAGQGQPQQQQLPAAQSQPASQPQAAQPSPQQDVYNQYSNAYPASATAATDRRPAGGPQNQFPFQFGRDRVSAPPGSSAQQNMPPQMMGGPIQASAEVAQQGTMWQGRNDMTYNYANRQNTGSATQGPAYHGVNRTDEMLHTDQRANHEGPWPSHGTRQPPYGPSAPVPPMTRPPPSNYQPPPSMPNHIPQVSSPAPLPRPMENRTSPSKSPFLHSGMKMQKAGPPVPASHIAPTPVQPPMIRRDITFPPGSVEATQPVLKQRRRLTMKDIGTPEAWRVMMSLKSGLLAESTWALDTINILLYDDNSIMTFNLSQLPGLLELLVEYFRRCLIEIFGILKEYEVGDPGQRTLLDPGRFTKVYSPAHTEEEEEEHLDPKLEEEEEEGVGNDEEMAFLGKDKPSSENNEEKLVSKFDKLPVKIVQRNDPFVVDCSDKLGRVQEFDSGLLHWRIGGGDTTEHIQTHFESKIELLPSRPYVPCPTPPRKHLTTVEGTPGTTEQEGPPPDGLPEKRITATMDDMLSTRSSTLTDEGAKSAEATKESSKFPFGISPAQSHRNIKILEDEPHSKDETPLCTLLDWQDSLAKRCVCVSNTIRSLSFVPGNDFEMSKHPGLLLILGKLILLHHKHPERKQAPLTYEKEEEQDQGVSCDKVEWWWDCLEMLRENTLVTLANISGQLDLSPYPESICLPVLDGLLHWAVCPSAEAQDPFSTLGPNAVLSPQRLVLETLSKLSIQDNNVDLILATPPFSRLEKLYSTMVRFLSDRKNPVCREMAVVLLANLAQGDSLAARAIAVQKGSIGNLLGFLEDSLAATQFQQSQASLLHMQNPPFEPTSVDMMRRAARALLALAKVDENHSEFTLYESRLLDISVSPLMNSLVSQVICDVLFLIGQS

One assay addresses T1, GST-WASH (mouse) (UniProt Q8VDD8).
T1 sequence: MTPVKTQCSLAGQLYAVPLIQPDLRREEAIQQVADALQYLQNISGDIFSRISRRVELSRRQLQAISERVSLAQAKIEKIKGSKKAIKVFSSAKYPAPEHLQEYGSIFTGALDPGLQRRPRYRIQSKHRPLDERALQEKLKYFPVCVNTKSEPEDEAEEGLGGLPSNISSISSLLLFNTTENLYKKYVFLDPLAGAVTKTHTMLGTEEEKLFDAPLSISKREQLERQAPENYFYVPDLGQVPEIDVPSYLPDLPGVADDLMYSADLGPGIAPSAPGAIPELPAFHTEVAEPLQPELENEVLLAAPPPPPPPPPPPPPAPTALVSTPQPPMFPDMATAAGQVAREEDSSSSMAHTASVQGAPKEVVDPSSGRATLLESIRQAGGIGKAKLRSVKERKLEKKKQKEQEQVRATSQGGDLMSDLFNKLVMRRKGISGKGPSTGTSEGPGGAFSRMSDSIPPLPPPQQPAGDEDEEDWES
The assay is described as follows: pull-down; GST-WASH incubated with LPL lysates of small intestine, GST pulldown; only the target purified.

The target of assay [1] is T2, WASH (mouse (endogenous in ILC3 cells)) (UniProt Q8VDD8).
T2 sequence: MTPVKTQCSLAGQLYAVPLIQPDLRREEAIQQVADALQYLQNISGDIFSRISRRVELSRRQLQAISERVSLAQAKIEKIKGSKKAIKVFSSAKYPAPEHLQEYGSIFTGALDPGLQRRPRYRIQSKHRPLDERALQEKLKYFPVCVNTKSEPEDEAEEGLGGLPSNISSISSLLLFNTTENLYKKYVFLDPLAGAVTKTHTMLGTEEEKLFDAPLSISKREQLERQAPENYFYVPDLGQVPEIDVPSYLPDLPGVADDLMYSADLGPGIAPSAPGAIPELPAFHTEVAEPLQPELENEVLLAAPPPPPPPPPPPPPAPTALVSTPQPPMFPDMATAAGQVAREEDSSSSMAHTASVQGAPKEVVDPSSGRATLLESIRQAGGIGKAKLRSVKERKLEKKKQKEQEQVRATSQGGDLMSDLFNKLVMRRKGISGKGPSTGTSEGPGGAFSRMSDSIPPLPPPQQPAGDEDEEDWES
Nature of the assay: co-IP; 4 x 10^5 NKp46+ ILC3 cells; nuclear pellets lysed in RIPA buffer, lysates treated by DNase I, anti-WASH antibody, protein A/G agarose, immunoblot. A general note: A western blot detects proteins with antibodies after separation by electrophoresis.

Assay [2] has as its target Flag-tagged WT Arid1a (mouse) (UniProt A2BH40). Nature of the assay: co-IP; Flag-tagged WT or truncated Arid1a co-transfected with HA-tagged WASH into NK92 cells, immunoprecipitation with antibody against Flag.

No constants are given. Whether binding was seen depends on the method and setting. In cells and extracts the contact can be indirect. Some entries that bind do so weakly or less than the wild type. For part of these data: Tags and fused reporters may be left off the sequences shown.

Turning to Arid1a (from UniProt A2BH40 1-2283), the binding entry (with GST-WASH (mouse); in assay [1]) was “binds” each time.

B1: HA-tagged WASH (protein, UniProt Q8VDD8 1-475)
chain: MTPVKTQCSLAGQLYAVPLIQPDLRREEAIQQVADALQYLQNISGDIFSRISRRVELSRRQLQAISERVSLAQAKIEKIKGSKKAIKVFSSAKYPAPEHLQEYGSIFTGALDPGLQRRPRYRIQSKHRPLDERALQEKLKYFPVCVNTKSEPEDEAEEGLGGLPSNISSISSLLLFNTTENLYKKYVFLDPLAGAVTKTHTMLGTEEEKLFDAPLSISKREQLERQAPENYFYVPDLGQVPEIDVPSYLPDLPGVADDLMYSADLGPGIAPSAPGAIPELPAFHTEVAEPLQPELENEVLLAAPPPPPPPPPPPPPAPTALVSTPQPPMFPDMATAAGQVAREEDSSSSMAHTASVQGAPKEVVDPSSGRATLLESIRQAGGIGKAKLRSVKERKLEKKKQKEQEQVRATSQGGDLMSDLFNKLVMRRKGISGKGPSTGTSEGPGGAFSRMSDSIPPLPPPQQPAGDEDEEDWES
On to B1, for which the binding entry in assay [2] was “binds”.
